This passage reports step yield results from patent publication US12312379B2 (Chugai Seiyaku Kabushiki Kaisha, priority 2021, dated 2025).

This data set in a line: peptide synthesis.

For the setting “late stage modification step, qNMR”, “(3S)-3-[[(2S)-2-[[1-[[(2S)-1-benzyloxycarbonylpyrrolidine-2-carbonyl]amino]cyclopentanecarbonyl]-methyl-amino]-2-cyclopentyl-acetyl]-methyl-amino]-4-(dimethylamino)-4-oxo-butanoic acid” showed a step yield of 94.1% yield.
Substance “benzyl (2S)-2-[[1-[[(1S)-2-[[(1S)-3-tert-butoxy-1-(dimethylcarbamoyl)-3-oxo-propyl]-methyl-amino]-1-cyclopentyl-2-oxo-ethyl]-methyl-carbamoyl]cyclopentyl]carbamoyl]pyrrolidine-1-carboxylate” showed a step yield (coupling step, qNMR) of 50.9%.
Consider “tert-butyl 2-[[(2S)-2-[[(2S)-1-[(2S)-2-[[(2S,3S)-2-(benzyloxycarbonylamino)-3-methyl-pentanoyl]-methyl-amino]propanoyl]azetidine-2-carbonyl]-ethyl-amino]-3-(p-tolyl)propanoyl]-methyl-amino]acetate”, for which the step yield reads like this: (coupling step, run 1) 75.1% yield; (coupling step, run 2) 63%; (coupling step, run 3) 66%; (coupling step, run 4) 62%; (coupling step, run 5) 60%.
Substance “tert-butyl (3S)-3-[[(2S)-2-cyclopentyl-2-[methyl-[1-[[(2S)-pyrrolidine-2-carbonyl]amino]cyclopentanecarbonyl]amino]acetyl]-methyl-amino]-4-(dimethylamino)-4-oxo-butanoate” showed a step yield (late stage modification step) of 92.3%.
